Assay results: patent publication CN112409487A
No constants are given. Whether binding was seen depends on the method and setting. Some entries that bind do so weakly or less than the wild type.

By UniProt entry, the sequences of proteins in these tests, tags left out. Residues count along the entry.
UniProt P02786, residues 101-760: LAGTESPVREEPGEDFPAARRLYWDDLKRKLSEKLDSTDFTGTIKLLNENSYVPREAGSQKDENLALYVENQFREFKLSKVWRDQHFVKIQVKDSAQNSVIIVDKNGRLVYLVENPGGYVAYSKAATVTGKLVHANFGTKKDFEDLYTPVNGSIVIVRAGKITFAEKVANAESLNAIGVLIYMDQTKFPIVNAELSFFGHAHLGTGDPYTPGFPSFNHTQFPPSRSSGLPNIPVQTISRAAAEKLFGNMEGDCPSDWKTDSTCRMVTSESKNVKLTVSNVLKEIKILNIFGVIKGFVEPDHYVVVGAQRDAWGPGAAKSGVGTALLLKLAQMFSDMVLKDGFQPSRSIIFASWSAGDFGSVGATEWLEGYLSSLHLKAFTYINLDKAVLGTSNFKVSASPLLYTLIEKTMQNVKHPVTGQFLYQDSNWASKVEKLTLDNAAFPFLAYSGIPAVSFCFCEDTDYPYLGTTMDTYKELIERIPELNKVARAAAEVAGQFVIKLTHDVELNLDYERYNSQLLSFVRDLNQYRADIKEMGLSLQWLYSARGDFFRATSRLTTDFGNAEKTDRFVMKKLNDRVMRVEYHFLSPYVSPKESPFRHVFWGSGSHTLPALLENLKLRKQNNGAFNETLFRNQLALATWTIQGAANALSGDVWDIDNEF

Assays:
sTfR重组蛋白 [1] = molecular target: sTfR重组蛋白 (UniProt P02786); experiment: indirect ELISA, protein G purified antibody on coated sTfR recombinant protein
sTfR重组蛋白 [2] = molecular target: sTfR重组蛋白 (UniProt P02786); experiment: indirect ELISA, serially diluted supernatants of positive clones on coated sTfR recombinant protein

B1: 鼠单克隆抗体8E11 (antibody, V domains shown)
VH: QVQLQQSGAELVRPGTSVKISCKASGYAFTNYWLGWVKQRPGRGLEWIGDIFPGSSNTYYNEKFKGKASLTADKSSSTAYMHLSSLTSEDSAVYFCARVKDYYAMGYWGQGTSVTVSS
VL: ENVLTQSPAIMSASPGEKVTMTCSASSSVSYMNWYQQKSITSPKLWIYDTFKLASGVPGRFSGSGSGNSYSLTISSMEAEDVATYYCFQGSGYPYTFGGGTKLEIK
What does the source list for B1?
binding (sTfR重组蛋白 [1]): binds; binding (sTfR重组蛋白 [2]): binds
